Test results published in patent publication US20230021187A1.
Results are given in words; binding and its absence hold for the method and conditions named. Some entries that bind do so weakly or less than the wild type.

The chains behind the UniProt entries cited, without tags or fusion partners. Residues count along the entry.
UniProt P05067, residues 672-713: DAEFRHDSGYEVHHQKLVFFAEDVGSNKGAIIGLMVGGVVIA

How the values were obtained:
amylospheroids (ASPD) [1] = molecular target: amylospheroids (ASPD) (UniProt P05067); experiment: sandwich CLEIA, huASD2 capture / biotinylated mASD3 detection
amylospheroids (ASPD) [2] = molecular target: amylospheroids (ASPD) (UniProt P05067); experiment: sandwich CLEIA, huASD2 capture / mASD3 detection
amylospheroids (ASPD) [3] = molecular target: amylospheroids (ASPD) (UniProt P05067); experiment: sandwich CLEIA, huASD2 capture / biotinylated mASD3 detection, patients' plasma

Measured: binding

B1: humanized anti-ASPD monoclonal antibody huASD2 (antibody, V domains shown)
VH: EVQLVESGGGLVKPGGSLRLSCAASGFTFSDYFMSWVRQAPGKGLEWVGGIEIKSYFYATYYFGSVKGRFTISRDDSKNTLYLQMNSLKTEDTAVYYCTTNREVGGLDNWGQGTLVTVSS
VL: QSVLTQPSSLSASPGASASLTCTLRSGISVGGKNIYWYQQKPGSPPQYLLKYSSYSNKQLGPGVPSRFSGSKDASANAGILLISGLQSEDEADYYCSIHESNAYVFGGGTKLTVLG
binds: all assays above
